Assay results: PubChem BioAssay AID1726 (National Center for Advancing Translational Sciences (NCATS), 2009)
Only results without a clear call are listed here; the source files them as inconclusive. Calls come from the whole dose curve; as a rule, active = well fitted curve in the direction sought with a large enough effect; inconclusive = small, poorly fitted or top-dose-only effect, or effect the other way, or another doubt; inactive = no such curve, though single readings can be large or run the other way. Potencies of inconclusive entries are doubtful fits and often do not repeat.

Molecular target: Epidermal growth factor receptor (Homo sapiens) (UniProt P00533)
Test: Assay for Inhibitors of the ERK Signaling Pathway using a Homogeneous Screening Assay: EGFR T790M/L858R Kinase Inhibition
From the text: qHTS Assay for Inhibitors of the ERK Signaling Pathway using a Homogeneous Screening Assay
NIH Chemical Genomics Center [NCGC]
NIH Molecular Libraries Screening Centers Network [MLSCN]
Assay Submitter (PI): Dr. Wei Zheng, NCGC/NIH
The Ras/extracellular-signal-regulated kinase (ERK) mitogen activated protein (MAP) kinase signaling pathway (ERK1/2 cascade) plays is a key role in transmitting signals from the cell surface to the nucleus (Nishida and Gotoh 1993; Chang and Karin, 2001). The cascade is initiated by the small G-protein Ras, which recruits Raf […], where activation occurs. Alternatively, this pathway can be activated by elevating intracellular cAMP.
Activation of the ERK pathway is essential in increased cell division and cell survival. Sustained and constitutive activation of the ERK pathway, however, has been linked to uncontrolled cell proliferation, increased cell survival, and tumor progression. Thus, the ERK has been as an attractive target for cancer chemotherapy in the past few years (Sebolt-Leopold and Herrera, 2004). […]
The HTRF kinase assay (components supplied as kit by Cisbio) was chosen for the EGFR and EGFR mutant enzyme assays that applied the time resolved fluorescence resonance energy transfer (TR-FRET) principle. […]

Row | SMILES | Potency
1 | O=C1c2ccccc2C(=O)c2c1cccc2N1CCCC1 | inconclusive: 39.8 µM [activator, single point]
2 | CN(C)c1cccc2c1C(=O)c1ccccc1C2=O | inconclusive: 28.2 µM [activator, partial curve]
